Literature values in patent US20190336490A1, “COMPOSITIONS AND METHODS FOR INCREASING REMYELINATION” (Frequency Therapeutics, Inc., priority 2018, published 2019).
At least one structure is not confirmed: it was looked up by name or label, or the drawing left a doubt.

Molecular target: T1, muscarinic M1 receptor (Homo sapiens, UniProt P11229)
T1 sequence (P11229 1-460): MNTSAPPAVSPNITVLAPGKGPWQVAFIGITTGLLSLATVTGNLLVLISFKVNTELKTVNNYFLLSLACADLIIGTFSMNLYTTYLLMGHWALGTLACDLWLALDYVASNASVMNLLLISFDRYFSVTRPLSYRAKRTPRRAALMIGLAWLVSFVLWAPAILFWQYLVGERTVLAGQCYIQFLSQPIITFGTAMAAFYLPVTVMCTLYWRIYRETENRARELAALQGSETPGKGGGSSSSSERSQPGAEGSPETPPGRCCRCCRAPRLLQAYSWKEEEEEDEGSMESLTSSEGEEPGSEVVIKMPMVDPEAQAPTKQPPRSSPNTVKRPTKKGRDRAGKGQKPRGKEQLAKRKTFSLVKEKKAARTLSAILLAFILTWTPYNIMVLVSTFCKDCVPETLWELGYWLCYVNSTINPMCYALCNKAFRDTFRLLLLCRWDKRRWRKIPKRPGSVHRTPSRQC
Details: cited from earlier work

**Q.** For CCN1CCCC(OC(=O)C(c2ccccc2)c2ccccc2)C1 (stereo not shown) [Piperidolate], which “In vitro M1 (Conc)” value is on record?
**A.** 63 nM
